Test results reported in patent US20130142788A1.
These are yes or no findings as the source states them, for the method shown. Some results given as binding are weak or reduced against the parent protein; the word gives no strength.

Legend:
[1] = target: T1, mature myostatin released from latent complex following BMP-1 cleavage (human and mouse (mature sequences 100% identical)); test: ELISA, antigen coated
T1 sequence: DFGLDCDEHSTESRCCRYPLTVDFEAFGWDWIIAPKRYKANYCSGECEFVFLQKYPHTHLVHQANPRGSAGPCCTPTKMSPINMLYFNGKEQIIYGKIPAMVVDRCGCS

[2] = target: T1, mature myostatin released from latent complex following BMP-1 cleavage (human and mouse (mature sequences 100% identical)); test: ELISA, antigen coated at 100 ng/well
[3] = target: T1, mature myostatin released from latent complex following BMP-1 cleavage (human and mouse (mature sequences 100% identical)); test: ELISA: antigen coated at 100 ng/well, 10B3 titrated, anti-mouse IgG F(ab')2-peroxidase, TMB, OD450

binding [1]: binds
binding [2]: binds
binding [3]: binds
B1: mouse monoclonal antibody 10B3 (antibody, mouse IgG2a, V domains shown)
VH: EVQLQQSGPELVKPGASVKISCKASGYSFTGYFMHWVKQSHGNILDWIGNIYPYNGVSNYNQRFKAKATLTVDKSSSTAYMELRSLTSEDSAVYYCARRYYYGTGPADWYFDVWGTGTTVTVSS
VL: DIKMTQSPSSMYASLRERVTITCKASQDINSYLSWFQQKPGKSPKTLIYRANRLVDGVPSRFSGSGSGQDYSLTISSLEYEDMGIYYCLQCDEFPLTFGAGTKLELK
